# The supplement of paper PMC10735217
# Structures can show the parent of a compound that is named as a salt. This is one part of the list. Single values are uncertain here, since repeats match poorly.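 Human kidney-derived cells stably carry a construct in which eight TEAD-binding elements drive luciferase, measured by luminescence in a drug-repurposing library screen. A hit is any compound whose signal exceeds the plate mean by more than five robust Z scores.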
# Test system: HEK293A TEAD-LUC reporter
# Experiment: TEAD-luciferase reporter activity (YAP activation), robust Z score vs plate; higher = stronger YAP/TEAD activation
# Conditions: 24 h
Structure (SMILES),TEAD-luciferase reporter activity (compound concentration: 200 nM),TEAD-luciferase reporter activity (compound concentration: 2 uM),TEAD-luciferase reporter activity (compound concentration: 10 uM)
COCCN(CCOC)C(=O)CCCC#Cc1cccc2nc(Cn3nc(-c4cccc(O)c4)c4c(N)ncnc43)n(Cc3ccccc3Cl)c(=O)c12,inactive: 0.135,inactive: -1.13,inactive: 2.52
NC(=O)c1cc(C#CCCN(O)C(N)=O)ccc1OCCN1CCN(C(c2ccccc2)c2ccc(Cl)cc2)CC1 (stereo not given),inactive: -0.366,inactive: -0.00518,inactive: -0.353
COc1ccc(N2CCc3c(-n4ccc(N5CCNC5=O)n4)cc(C)nc32)c(C)c1 [Emicerfont],inactive: 0.801,inactive: 0.256,inactive: 0.721
CC(=O)NC[C@H]1CN(c2ccc(N3CCN(C(=O)CO)CC3)c(F)c2)C(=O)O1 [Eperezolid],inactive: -0.377,inactive: -1.17,inactive: -0.318
CCCC[C@H](NC(=O)N[C@@H](CC(=O)O)c1ccc2c(c1)OCO2)C(=O)N(Cc1cccs1)Cc1cccs1,inactive: -0.503,inactive: -1.65,inactive: -0.603
CC[C@H](C)[C@H](N)C(=O)N[C@@H](CCSC)C(=O)N[C@@H](CC(=O)O)C(=O)N[C@@H](CCC(N)=O)C(=O)N[C@H](C(=O)N1CCC[C@H]1C(=O)N[C@@H](Cc1ccccc1)C(=O)N[C@@H](CO)C(=O)N[C@H](C(=O)O)C(C)C)C(C)C [Disomotide],inactive: -0.992,inactive: 2.49,inactive: 2
CC1(C)Oc2cc3oc(C(=O)O)cc(=O)c3cc2-c2ccccc21,active: 7.05,inactive: -0.164,inactive: 0.546
Nc1cc(C(Cl)=C(Cl)Cl)c(S(N)(=O)=O)cc1S(N)(=O)=O [Clorsulon],–,inactive: -1.42,–
Nc1cc(C(Cl)=C(Cl)Cl)c(S(N)(=O)=O)cc1S(N)(=O)=O,inactive: -0.362,–,inactive: 4.5
O=C(CC(c1ccccc1)c1ccccc1)N1CCN(C(c2ccccc2)c2ccccc2)CC1,inactive: -0.0932,inactive: -1.26,inactive: -0.438
Oc1ccccc1CCOc1ccc(F)cc1,active: 6.83,inactive: 0.337,inactive: -0.174
Cc1ncc(CO)c(CO)c1O.O=C1CC[C@@H](C(=O)O)N1 [Pyridoxine pyrolate],inactive: -1.29,inactive: -0.772,inactive: -1.42
Cc1cc2cc(Oc3ccnc(Nc4cccc(CS(=O)(=O)NCCN(C)C)c4)n3)ccc2[nH]1 [Sulfatinib],inactive: 2.65,inactive: -1.16,inactive: -0.899
COc1ccc(CC(=O)N2CCCC3(Cc4ccccc4CN3C(=O)CN)C2)cc1 (stereo not given),inactive: 4.24,–,inactive: 0.536
CCCCCCCCCCCCCCCCCCO,inactive: 0.217,inactive: -0.193,inactive: 0.304
COc1ccc(/C(=C/F)CN)cc1OC,inactive: -0.651,inactive: -0.691,inactive: 1.45
O=C(Cn1ccnc1[N+](=O)[O-])NCCO,inactive: -0.965,–,inactive: -0.295
O=C(Cn1ccnc1[N+](=O)[O-])NCCO [Etanidazole],–,inactive: 0.706,–
CNC(=O)c1ccc(Nc2ncc(C(F)(F)F)c(NCc3nccnc3N(C)S(C)(=O)=O)n2)cc1 [Defactinib hydrochloride],inactive: -1.64,inactive: -2.59,inactive: -2.31
O=C(O)C1=C(c2ccc3c(c2)OCO3)c2ccccc2S(=O)(=O)N1c1cc2c(cc1Cl)OCO2,inactive: -0.627,inactive: -0.875,inactive: 1.41
CC(C)(C)c1csc(COc2cccc(C(=O)Nc3cc(CCCS(=O)(=O)c4ccc(Cl)cc4)ccc3OCc3nn[nH]n3)c2)n1,inactive: -0.811,inactive: 0.085,inactive: -0.647
CC(C)(NC(=O)c1nc(Cl)c(N)nc1N)C(=O)NCCNCC(O)COc1cccc2ccccc12 (stereo not given),inactive: -1.35,inactive: -1.21,inactive: -0.838
Nc1nc2c([nH]1)c(=O)n(CC1CC1)c(=O)n2CC1CC1 [Cipamfylline],inactive: -1.22,inactive: 0.627,inactive: 0.409
CC(=O)c1ccc2c(c1)N(CCCN(C)C)c1ccccc1S2,inactive: -0.38,inactive: -0.381,inactive: -0.153
CCN(CC)CCOc1cccc(-c2cn3c(n2)sc2ccccc23)c1,inactive: -1.27,inactive: 0.723,inactive: 3.82
O=C(NC1CC1)C1CCCN(c2nc3ncccc3o2)C1 (stereo not given),inactive: -1.61,–,inactive: 0.283
CCCN(CCC)C(=O)C(Cc1ccc(OCCCN2CCN(C)CC2)cc1)NC(=O)c1cccc(F)c1 (stereo not given),inactive: 2.2,inactive: -0.455,inactive: 0.301

# Full records from above. Values in the order: TEAD-luciferase reporter activity (compound concentration: 200 nM)	TEAD-luciferase reporter activity (compound concentration: 2 uM)	TEAD-luciferase reporter activity (compound concentration: 10 uM)
# Cc1ncc(CO)c(CO)c1O.O=C1CC[C@@H](C(=O)O)N1 [Pyridoxine pyrolate] is entered as inactive: -1.29	inactive: -0.772	inactive: -1.42
# CC(C)(C)c1csc(COc2cccc(C(=O)Nc3cc(CCCS(=O)(=O)c4ccc(Cl)cc4)ccc3OCc3nn[nH]n3)c2)n1 is entered as inactive: -0.811	inactive: 0.085	inactive: -0.647
# Nc1cc(C(Cl)=C(Cl)Cl)c(S(N)(=O)=O)cc1S(N)(=O)=O [Clorsulon] is entered as –	inactive: -1.42	–
# O=C(Cn1ccnc1[N+](=O)[O-])NCCO [Etanidazole] is entered as –	inactive: 0.706	–

# Carrying on.

Structure (SMILES),TEAD-luciferase reporter activity (compound concentration: 200 nM),TEAD-luciferase reporter activity (compound concentration: 2 uM),TEAD-luciferase reporter activity (compound concentration: 10 uM)
CC(=O)Oc1ccccc1C(=O)Oc1ccccc1 [phenyl 2-(acetyloxy)benzoate],inactive: -0.826,inactive: -1.17,inactive: 3.93
CC1(c2ccccc2)OC(C(=O)O)=CC1=O (stereo not given) [Acifran],inactive: -1.13,inactive: 1.87,inactive: 0.735
"C[C@]12C=CC(=O)C=C1CC[C@H]1[C@@H]3C[C@@H](O)[C@](O)(C(=O)CO)[C@@]3(C)C[C@H](O)[C@@]12F [triamcinolone, Allergan]",inactive: 1.05,inactive: 1.29,inactive: 1.03
O=C(NCCN1CCCC1)c1cc(-c2ccc(CN3CCOCC3)cc2)nc2ccc(F)cc12,inactive: -0.787,inactive: -0.0373,inactive: 2.2
COc1ccccc1C(=O)NCCc1ccc(S(=O)(=O)NC(=O)NC2CCCC2)cc1,inactive: -1.36,inactive: -0.0823,inactive: 0.0229
Cc1nc([N+](=O)[O-])cn1-c1ccccc1,inactive: -1.79,inactive: -0.389,inactive: -0.431
CC(C)(C)N1CCN[C@@H](C(=O)N2CCN(C(=O)Nc3ccc(Cl)c(F)c3)CC2)C1,inactive: -0.642,inactive: 2.6,inactive: 0.628
CCc1cc(/C(C)=N/OCc2ccc(C3CCCCC3)c(C(F)(F)F)c2)ccc1CN1CC(C(=O)O)C1 [BAF312 (Siponimod)],inactive: -1.61,–,inactive: 2.52
CCc1cc(/C(C)=N/OCc2ccc(C3CCCCC3)c(C(F)(F)F)c2)ccc1CN1CC(C(=O)O)C1 [siponimod],–,inactive: -1.16,–
O=C(O)CCC/C=C\C[C@H]1C(=O)C=C[C@@H]1/C=C/[C@@H](O)CCc1ccccc1 [17-phenyl trinor PGA2],inactive: -0.636,inactive: -2.38,inactive: 4.19
Oc1cc2c3c(c1)c1cc4c(cc1c[n+]3CC2)OCO4 [Lycobetaine chloride],inactive: -1.29,inactive: 0.752,inactive: 1.3
CS(=O)(=O)NC(=O)C(c1ccc(OCc2ccc3ccccc3n2)cc1)C1CCCCCC1 (stereo not given),inactive: -0.232,inactive: -2.05,inactive: -0.0176
C[C@H](c1ccc(-c2ccccc2)c(F)c1)c1cc(/N=C(\N)N2CCOCC2)on1,inactive: -0.854,inactive: 1.97,inactive: 1.34
Cc1nn(C)cc1CN1CCC(c2ccc(C(=O)Nc3ccccc3N)cc2)CC1,active: 7.5,inactive: 2.42,active: 10.1
CC(C)(C)S(=O)(=O)N[C@H]1CC[C@H](C(=O)Nc2ccc(C(F)(F)F)cn2)CC1 [velneperit],inactive: -0.858,inactive: -1.43,inactive: 1.16
Cc1c(C(=O)N(C)C2CCCCC2)sc2nc3ccc(N)cc3n12,inactive: -1.31,inactive: 2.03,inactive: -0.0864
CC(=O)c1cccc(NC(=O)c2nnn[nH]2)c1O,inactive: 0.805,inactive: -1.86,inactive: -1.59
CCCN(CCc1cccs1)[C@H]1CCc2c(O)cccc2C1,inactive: -0.901,inactive: -1.18,inactive: -0.123
c1csc(Cc2ccccc2OCC2CNCCO2)c1 (stereo not given) [Teniloxazine maleate],inactive: -0.0268,inactive: 3.89,inactive: 1.78
CC[C@H](C)[C@@H]1NC(=O)[C@H](Cc2ccccc2)NC(=O)[C@@H](N)CSSC[C@@H](C(=O)N2CCC[C@H]2C(=O)N[C@@H](CCCNC(C)C)C(=O)NCC(N)=O)NC(=O)[C@H](CC(N)=O)NC(=O)[C@H](CCCC(N)=O)NC1=O [selepressin],inactive: 0.175,inactive: -0.372,inactive: 0.377
c1ccc2c(c1)CC[C@H](CNCCCNC1=NCCCN1)O2,inactive: -1.59,inactive: -1.37,inactive: 2.83
CCCc1ccc(NS(=O)(=O)Cc2ccccc2)c(=O)n1CC(=O)NCc1ccc(C)nc1,inactive: -1.38,inactive: -1.2,inactive: -0.717
CNC(=O)c1ccc(N2C(=S)N(c3cnc(C#N)c(C(F)(F)F)c3)C(=O)C23CCC3)cc1F [Apalutamide],inactive: -1.47,inactive: -1.03,inactive: 0.196
Nc1ncnc2nc(-c3ccc(N4CCOCC4)nc3)cc(-c3cccc(Br)c3)c12 [Adenosine Kinase Inhibitor],inactive: -0.184,–,inactive: 1.48
Nc1ncnc2nc(-c3ccc(N4CCOCC4)nc3)cc(-c3cccc(Br)c3)c12,–,inactive: -0.879,–
CC1(C)O[C@@H]2C[C@H]3[C@@H]4CCC5=CC(=O)C=C[C@]5(C)[C@H]4[C@@H](O)C[C@]3(C)[C@]2(C(=O)CO)O1 [desonide HydroGel],–,inactive: 0.122,–
"CC1(C)O[C@@H]2C[C@H]3[C@@H]4CCC5=CC(=O)C=C[C@]5(C)[C@H]4[C@@H](O)C[C@]3(C)[C@]2(C(=O)CO)O1 [desonide HydroGel, SkinMedica]",inactive: -1.15,–,inactive: 0.947
